{"source": "patent US10501497B2", "about": "“Cyclic polypeptides, method for obtaining them and the therapeutic use thereof” (AXOLTIS PHARMA, priority 2015, dated 2019)", "key": {"[1]": {"test_system": "B104 cells from rat neuroblastoma", "conditions": "linear polypeptide without disulfide bridge; cited from earlier work"}, "[2]": {"test": "Solubility in aqueous 0.9% NaCl solution (optical microscope / visual examination)", "conditions": "29.4 mg/ml in 0.9% NaCl, vortexed, drop on glass slide"}}, "note": "Not every detail of the peptide structures is certain; ends, links or a residue may be inferred. Peptide text beside a SMILES is read from it.", "data": [{"smiles": "N=C(N)NCCC[C@H](NC(=O)[C@H](CO)NC(=O)[C@H](CS)NC(=O)[C@H](CO)NC(=O)[C@H](CO)NC(=O)[C@H](Cc1c[nH]c2ccccc12)NC(=O)CNC(=O)[C@H](CO)NC(=O)[C@@H](N)Cc1c[nH]c2ccccc12)C(=O)N[C@@H](CO)C(=O)N[C@@H](CS)C(=O)NCC(=O)O", "note": "[SEQ ID NO: 58, W-S-G-W-S-S-C-S-R-S-C-G] (H-WSGWSSCSRSCG-OH; N-terminus and C-terminus assumed)", "values": [{"measurement": "effect on B104 cell differentiation", "setting": "[1]", "result": "cell differentiation inducing neuritic growth and cell aggregation"}, {"measurement": "appearance of peptide solution under optical microscope", "setting": "[2]", "result": "a large number of particles"}]}]}
